Test results reported in the supplement of paper PMC7877785.
± gives the uncertainty stated by the source. Many of these values have a large error.

Assay: self-splicing fitness, log relative to wild type (ln ratio); higher = more splicing; Tetrahymena group I intron in knt gene, E. coli kanamycin selection, DiMSum; sequences stand for … in CUCUCU…GGAGGGAAAAGUUAUCAGGCAUGCACCUGGUAGCUAGUCUUUAAACCAAUAGAUUGCAUCGGUUUAAAAGGCAAGACCGUCAAAUUGCGGGAAAGGGGUCAACAGCCGUUCAGUACCAAGUCUCAGGGGAAACUUUGAGAUGGCCUUGCAAAGGGUAUGGUAAUAAGCUGACGGACAUGGUCCUAACCACGCAGCCAAGUCCUAAGUCAACAGAUCUUCUGUUGAUAUGGAUGCAGUUCACAGACUAAAUGUCGGUCGGGGAAGAUGUAUUCUUCUCAUAAGAUAUAGUCGGACCUCUCCUUAAUGGGAGCUAGCGGAUGAAGUGAUGCAACACUGGAGCCGCUGGGAACUAAUUUGUAUGCGAAAGUAUAUUGAUUAGUUUUGGAGUACUCGUGGUCG
Summary of the method: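 Pooled colonies went to amplicon sequencing on an Illumina HiSeq 2500 after six replicate transformations. The plates were LB agar with 100 μg/mL carbenicillin, 50 μM IPTG and 0.2% rhamnose, with or without 25 μg/mL kanamycin, incubated overnight at 37°C or 30°C. The E. coli BL21(DE3) library had all eight P1ex-region intron nucleotides randomised, the intron placed in the knt kanamycin-resistance gene on pET-22b(+). DiMSum fitness is the error-weighted combination of replicate fold changes, kanamycin against none, normalised to wild type.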

Sequence	self-splicing fitness (ln) (30 °C)	self-splicing fitness (ln) (37 °C)
AUAGAGCAAUAUUACGAGAA	-4.45 ± 0.59	
UCAGAGCAAUAUUACGCCUU	-4.63 ± 1	
GGUAAGCAAUAUUACGAGGC	-3.57 ± 1	-1.74 ± 0.66
GGCCAGCAAUAUUACGAACC	0.576 ± 0.31	-0.0497 ± 0.4
CUUUAGCAAUAUUACGAACU	-3.28 ± 0.24	-2.54 ± 0.19
CAGGAGCAAUAUUACGACAA	-3.06 ± 0.76	-1.73 ± 0.41
CAUGAGCAAUAUUACGCGGG	-1.45 ± 0.14	-2.46 ± 0.28
CUGAAGCAAUAUUACGACUC		-2.7 ± 0.54
UCUGAGCAAUAUUACGAACC	-2.02 ± 1.2	
AAAUAGCAAUAUUACGAAGC		-3.75 ± 0.59
UAUAAGCAAUAUUACGGCAU	-0.623 ± 0.077	-0.223 ± 0.098
UGCUAGCAAUAUUACGAUGC		-4.34 ± 0.59
UGAUAGCAAUAUUACGCGAC		-2.2 ± 0.78
CUUUAGCAAUAUUACGAAAA	-3.44 ± 0.61	
CUCCAGCAAUAUUACGGGCA	-4.15 ± 0.53	
GUUGAGCAAUAUUACGGAAU		-0.927 ± 0.71
CUUGAGCAAUAUUACGCUGC		-2.9 ± 1.1
UAAGAGCAAUAUUACGAACC	-1.95 ± 0.82	
UAAUAGCAAUAUUACGCUAU	-2.93 ± 0.19	-1.85 ± 0.21
AGUCAGCAAUAUUACGGUCU	-0.851 ± 0.06	-0.146 ± 0.068
CGAGAGCAAUAUUACGAAGA		-2.67 ± 0.62
UGAUAGCAAUAUUACGUCCC	-1.73 ± 0.91	0.166 ± 0.75
UUAUAGCAAUAUUACGAUAU	-1.97 ± 0.13	-0.578 ± 0.17
GGUGAGCAAUAUUACGCGAU		-2.56 ± 0.53

Sequence	self-splicing fitness (ln) (30 °C)	self-splicing fitness (ln) (37 °C)
UGAGAGCAAUAUUACGUACC		-3.08 ± 1.1
GCGGAGCAAUAUUACGCUAA	-1.96 ± 1.2	-2.98 ± 1.1
GUCCAGCAAUAUUACGAAAC	-0.222 ± 0.15	-0.568 ± 0.2
CCUAAGCAAUAUUACGAACU	-3.44 ± 0.48	-1.99 ± 0.22
UGAGAGCAAUAUUACGAGAA	-2.44 ± 1.1	
GGAGAGCAAUAUUACGAUCU	-6.03 ± 1	
UCUAAGCAAUAUUACGGAGC	-2.17 ± 0.69	
CGCGAGCAAUAUUACGUACC	-4.33 ± 1	
UGAAAGCAAUAUUACGCAUC	-3.5 ± 0.73	
CUCGAGCAAUAUUACGCACG		-3.3 ± 0.52
UGUUAGCAAUAUUACGUAGA	-2.29 ± 0.12	-0.809 ± 0.14
GUCAAGCAAUAUUACGCACC	-1.96 ± 1.2	
GACGAGCAAUAUUACGUCAA		-4.24 ± 0.72
UCGGAGCAAUAUUACGGAAC		-1.79 ± 0.51
CUAUAGCAAUAUUACGAACU	-3.67 ± 0.43	-3.19 ± 0.74
GCUGAGCAAUAUUACGUAGC		-1.13 ± 1.2
CUGUAGCAAUAUUACGCCAG	-2.6 ± 0.78	-1.71 ± 0.59
CCUGAGCAAUAUUACGAUCU		-2.86 ± 0.61
CGGAAGCAAUAUUACGUCGU	-4.14 ± 0.51	
GGGAAGCAAUAUUACGCGCC		-0.681 ± 1
UCGUAGCAAUAUUACGGCCU	-2.57 ± 0.55	-1.03 ± 0.5
AGCGAGCAAUAUUACGAUAA	-3.59 ± 0.52	
GCAUAGCAAUAUUACGAAGC	-2.63 ± 0.54	-0.744 ± 0.64
CUAAAGCAAUAUUACGUCGG	-0.261 ± 0.061	-0.189 ± 0.078

Retrieved one by one from the entries so far:
Sequence	self-splicing fitness (ln) (30 °C)	self-splicing fitness (ln) (37 °C)
GCAUAGCAAUAUUACGAAGC	-2.63 ± 0.54	-0.744 ± 0.64
GUCCAGCAAUAUUACGAAAC	-0.222 ± 0.15	-0.568 ± 0.2
GCUGAGCAAUAUUACGUAGC		-1.13 ± 1.2
GGUGAGCAAUAUUACGCGAU		-2.56 ± 0.53
UAAUAGCAAUAUUACGCUAU	-2.93 ± 0.19	-1.85 ± 0.21
UAUAAGCAAUAUUACGGCAU	-0.623 ± 0.077	-0.223 ± 0.098

More results:

Sequence	self-splicing fitness (ln) (30 °C)	self-splicing fitness (ln) (37 °C)
CUUCAGCAAUAUUACGUCCC	-3.86 ± 0.74	
UAUGAGCAAUAUUACGUGGU	-4.91 ± 1	
AUAGAGCAAUAUUACGAUGC	-2.3 ± 0.6	
CCGUAGCAAUAUUACGGAUA	-4.1 ± 0.52	
GUUGAGCAAUAUUACGCUCU		-0.595 ± 0.78
UCCGAGCAAUAUUACGUUAU	-3.95 ± 0.21	-1.93 ± 0.19
CGUGAGCAAUAUUACGCAGG	-1.54 ± 0.11	-2.14 ± 0.15
CUGUAGCAAUAUUACGUUGC		-2.59 ± 0.77
CGAGAGCAAUAUUACGCCAU	-2.89 ± 0.66	
CUAUAGCAAUAUUACGCAAC	-4.99 ± 0.59	
AAAUAGCAAUAUUACGAAGA	-2.26 ± 0.26	-1.1 ± 0.17
ACAGAGCAAUAUUACGCGCU	-4.63 ± 0.71	
CUCCAGCAAUAUUACGCGUC		-2.53 ± 0.55
UAGAAGCAAUAUUACGGCCC	-1.54 ± 0.72	0.504 ± 1.2
CGCUAGCAAUAUUACGGGUU	-2.73 ± 0.082	-2.04 ± 0.11
GUGGAGCAAUAUUACGCCUG		-3.12 ± 0.61
UAGGAGCAAUAUUACGGCCC	-3.09 ± 0.75	-2.22 ± 0.56
UAUAAGCAAUAUUACGCGCC		0.417 ± 1.2
AGUUAGCAAUAUUACGCUAG	-3.76 ± 0.6	-2.84 ± 0.6
UAGUAGCAAUAUUACGCCGC	-4.57 ± 0.72	-2.43 ± 0.54
CGUUAGCAAUAUUACGACGC	-1.98 ± 0.86	
CCGCAGCAAUAUUACGAUGU	-3.21 ± 0.14	-2.83 ± 0.17
CUAAAGCAAUAUUACGAACC	-4.49 ± 1	-0.845 ± 0.92
CCGGAGCAAUAUUACGGCCA		-2.72 ± 0.79

Sequence	self-splicing fitness (ln) (30 °C)	self-splicing fitness (ln) (37 °C)
UCUUAGCAAUAUUACGCCAA	-2.47 ± 1.1	-3.33 ± 1
CAUUAGCAAUAUUACGUCAC	-4.63 ± 0.58	
AUUAAGCAAUAUUACGUAUA	-1.48 ± 0.16	-1.35 ± 0.14
CCCGAGCAAUAUUACGAGUA	-3.01 ± 0.16	-2.37 ± 0.14
CAUGAGCAAUAUUACGACCC	-2.21 ± 1.1	0.504 ± 1.2
GCCAAGCAAUAUUACGGAGG	-3.49 ± 0.19	-1.08 ± 0.16
GGGGAGCAAUAUUACGAGUC		-2.54 ± 0.83
UGUGAGCAAUAUUACGAUUC	-3.16 ± 1	-2.99 ± 0.61
GUCGAGCAAUAUUACGAGAU	-4.44 ± 0.51	
AAGGAGCAAUAUUACGGCCG		-1.49 ± 0.81
CCACAGCAAUAUUACGAGCC	-3.22 ± 0.42	-2.3 ± 0.31
UUCCAGCAAUAUUACGAUCC		-1.69 ± 1.2
GCGCAGCAAUAUUACGACAC	-0.738 ± 0.38	-0.194 ± 0.59
AGUCAGCAAUAUUACGGAGA	-4.41 ± 0.51	-1.53 ± 0.38
GCGUAGCAAUAUUACGAUGU	-2.18 ± 0.068	-1.15 ± 0.096
AAUGAGCAAUAUUACGACAC		-2.02 ± 0.66
CGCGAGCAAUAUUACGAGAA	-2.7 ± 0.76	
GAUGAGCAAUAUUACGCUGC	-3.88 ± 1.1	
UAUGAGCAAUAUUACGCCCU	-2.48 ± 1.1	-0.44 ± 1.4
GUCGAGCAAUAUUACGACCU	-3.72 ± 1	
GGACAGCAAUAUUACGACAC	-0.596 ± 0.1	0.167 ± 0.13
UAGUAGCAAUAUUACGAGCU	-3.48 ± 1.1	
CUAGAGCAAUAUUACGCCCC	-3.72 ± 1	
